Results reported in the RNAGym collection of RNA variant scans (doi:10.1126/science.aae0568).
Variants at the floor of the assay are shown more often than the library holds them.

B1: tRNA (parent)
chain: GUUCCGUUGGCGUAAUGGUAACGCGUCUCCCUCCUAAGGAGAAGACUGCGGGUUCGAGUCCCGUACGGAACG

Variants of: B1
Assay: yeast fitness relative to wild type (ratio to wild type); higher = fitter; tRNA-Arg(CCU), competitive growth, 37 C, YPD
Summary of the method: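 Changes in genotype frequencies gave Darwinian fitness relative to wild type. Frequencies were read by 100-nucleotide paired-end sequencing of gene amplicons before and after pooled Saccharomyces cerevisiae strains, carrying tRNA-Arg(CCU) gene variants at the native locus, were competed in YPD at 37°C for 24 hours in six replicates. A genotype was kept only with ≥ 100 starting reads, and estimates < 0.5 were set to 0.5.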

| Variant | yeast fitness |
| --- | --- |
| U2A A20G G23C C55U | ≤ 0.5 |
| U2A A20U A21C C27U C33A | ≤ 0.5 |
| U2A A36C C55A | ≤ 0.5 |
| U2A C5A A57C | ≤ 0.5 |
| U2A C5A U32C G39C C46G | ≤ 0.5 |
| U2A C5A U64G C66U | ≤ 0.5 |
| U2A C5G G10A C11G A20G | ≤ 0.5 |
| U2A C5U C29G A37U A65G | ≤ 0.5 |
| U2A C30G C33A | ≤ 0.5 |
| U2A C33U A37C A70G | ≤ 0.5 |
| U2A G6A C11G C46U A57C | ≤ 0.5 |
| U2A G9A A37G C55A A57U | ≤ 0.5 |
| U2A G10A A14C C24U C31G G51C | ≤ 0.5 |
| U2A G10U U16A G56C A57G C62U | ≤ 0.5 |
| U2A G12A A21C G52C | ≤ 0.5 |
| U2A G17C A42C G50C | ≤ 0.5 |
| U2A U7A G10A C33A A36C | ≤ 0.5 |
| U2A U8C G23A C29G | ≤ 0.5 |
| U2A U13G U28A A36U A45U A57G | 0.59 |
| U2A U19A C22G G23C C30G C34A C62U A69C | ≤ 0.5 |
| U2C A15U A20U C60G A69U | ≤ 0.5 |
| U2C A20C G68A | 0.614 |
| U2C A21U G50A U54G | ≤ 0.5 |
| U2C A45G C60G C62U | ≤ 0.5 |

| Variant | yeast fitness |
| --- | --- |
| U2C C4U A70C | 0.733 |
| U2C C4U C11U A45U A57U | ≤ 0.5 |
| U2C C4U G10C | ≤ 0.5 |
| U2C C4U G10C A57C A70C | ≤ 0.5 |
| U2C C4U G12A C62U | ≤ 0.5 |
| U2C C5G G9A A15U C62U A69U | ≤ 0.5 |
| U2C C11A A21C C31U | ≤ 0.5 |
| U2C C11A C22G C46U U53G A57C | ≤ 0.5 |
| U2C C22G C31U C60U C61U C66G | ≤ 0.5 |
| U2C C22G U35A A57G C62A | ≤ 0.5 |
| U2C C24U U32G A40U U64G | ≤ 0.5 |
| U2C C29U C46G G51A G52C | 0.557 |
| U2C C30U C34G G38C A65C | ≤ 0.5 |
| U2C C31G C62A C66U | ≤ 0.5 |
| U2C G9A C34U G39A C62U | ≤ 0.5 |
| U2C G10A C27U G41A G63A | ≤ 0.5 |
| U2C G12A C27G C46A C55U | ≤ 0.5 |
| U2C G48C | 1.11 |
| U2C U3C C34U C66U | ≤ 0.5 |
| U2C U3C G23C C31G C33U A42G G52C G58C | ≤ 0.5 |
| U2C U8A G17C G38A U53C C66G | ≤ 0.5 |
| U2C U13C U28G U54A C62A | ≤ 0.5 |
| U2C U16C C22A C29A G51C | ≤ 0.5 |
| U2C U19C A37G C49A G63A | ≤ 0.5 |

| Variant | yeast fitness |
| --- | --- |
| U2C U28A G41A A57C | ≤ 0.5 |
| U2C U35A | 0.62 |
| U2G A21C C22U C31U C33U C62A | ≤ 0.5 |
| U2G A36U C61G | ≤ 0.5 |
| U2G A40C A57G | ≤ 0.5 |
| U2G A43C C62G G63A C66G A69G | ≤ 0.5 |
| U2G C4A U16C C62G | ≤ 0.5 |
| U2G C4U A20C C30G | ≤ 0.5 |
| U2G C4U A57C | ≤ 0.5 |
| U2G C5A A20G C55G | ≤ 0.5 |
| U2G C5A U19A A65U | ≤ 0.5 |
| U2G C5U A21C | ≤ 0.5 |
| U2G C11G A20U C24G A42G | ≤ 0.5 |
| U2G C11U U28C C29G | ≤ 0.5 |
| U2G C27G C33U U54C | ≤ 0.5 |
| U2G C27G G67C | ≤ 0.5 |
| U2G C29G C33G | ≤ 0.5 |
| U2G C30U U47A U59A C60U C62G C66U | ≤ 0.5 |
| U2G C31U U64G A65U | ≤ 0.5 |
| U2G C33G A36U A57U | ≤ 0.5 |
| U2G G9A A36G A57G C60U | 0.672 |
| U2G G9A A69U | 0.577 |
| U2G G9C G10C C24U C29G C30A | ≤ 0.5 |
| U2G G17C C33U U47A A69U | ≤ 0.5 |

| Variant | yeast fitness |
| --- | --- |
| U2G G68C | 0.705 |
| U2G U3A C5U U7C U8A A20C U35C A37U A45G A57C | ≤ 0.5 |
| U2G U3C C46A | ≤ 0.5 |
| U2G U3G G18A A20C C49U C55U | ≤ 0.5 |
| U2G U13A C60U | 0.816 |
| U2G U13A G17C U26A C46G | ≤ 0.5 |
| U2G U19A C61A C62U A65U A69C | ≤ 0.5 |
| U2G U35G A45G C49G U59C C60U | ≤ 0.5 |
| U2G U47C C62G | ≤ 0.5 |
| U2G U54A C55U G68A A69U | ≤ 0.5 |
| U3A A14U C66U | ≤ 0.5 |
| U3A A15C A21U | ≤ 0.5 |
| U3A A20U A45G G50A G52A | ≤ 0.5 |
| U3A A20U G50A C66G | ≤ 0.5 |
| U3A A21C A36U U59C | ≤ 0.5 |
| U3A A21C G25U A43C C61A C62U G67C | ≤ 0.5 |
| U3A A21G U35A G56C C62U | ≤ 0.5 |
| U3A A37C C55A | ≤ 0.5 |
| U3A A43C C62A C66G | ≤ 0.5 |
| U3A A57U A65C A69C | 0.593 |
| U3A C4A C29U A36U C66U G67A | ≤ 0.5 |
| U3A C4U C5U | 0.594 |
| U3A C4U C33G C34G A57U | 0.63 |
| U3A C5A A15C C29A A42C A45G | ≤ 0.5 |

| Variant | yeast fitness |
| --- | --- |
| U3A C5A G6C A15G U16A U26G U32A C34G C55G G68A A70C | ≤ 0.5 |
| U3A C11G A14C C24G G58A | ≤ 0.5 |
| U3A C11G C30G G41A C60U | ≤ 0.5 |
| U3A C22G C24U C33A G58A | ≤ 0.5 |
| U3A C22G C29U G67C | ≤ 0.5 |
| U3A C22U U28A A37U G51C C66U | ≤ 0.5 |
| U3A C24G A57U | ≤ 0.5 |
| U3A C24U G39A C62A | ≤ 0.5 |
| U3A C27A C62A | ≤ 0.5 |
| U3A C31U A36C G50A G58A | ≤ 0.5 |
| U3A C62A C66G | ≤ 0.5 |
| U3A G6A A37C U64A G68C A69U | ≤ 0.5 |
| U3A G9A U19A G44C C61U C62G | ≤ 0.5 |
| U3A G9C | 0.567 |
| U3A G12A U19A C61A C66U A69C | ≤ 0.5 |
| U3A G18A U47C C49G C55G C60A C62A G68A A69U | ≤ 0.5 |
| U3A G23A C49A | ≤ 0.5 |
| U3A U7C G68A | ≤ 0.5 |
| U3A U8A A43U C55U | ≤ 0.5 |
| U3A U8A G25C C30A G50C C55G C60A | ≤ 0.5 |
| U3A U8C U32C | ≤ 0.5 |
| U3A U26C C62A C66G | ≤ 0.5 |
| U3A U32G G63C C66U | ≤ 0.5 |
| U3C A15C C33G G44C | ≤ 0.5 |

| Variant | yeast fitness |
| --- | --- |
| U3C A37G U47C G52A C61U | ≤ 0.5 |
| U3C A40C C49U C61G | ≤ 0.5 |
| U3C C5A A15U A20G C30G | ≤ 0.5 |
| U3C C5A C24U G58A | ≤ 0.5 |
| U3C C5A C66U | 0.605 |
| U3C C5U G17C U26G G67A | ≤ 0.5 |
| U3C C22G G67U | 0.538 |
| U3C C31U A65U A70U | ≤ 0.5 |
| U3C G9C C11U U19C C30G A43C | ≤ 0.5 |
| U3C G12A G44C | 0.546 |
| U3C G50A A65U G68A | ≤ 0.5 |
| U3C U7C G10A C24G | ≤ 0.5 |
| U3C U8G U32A C33G C62U A65G | ≤ 0.5 |
| U3C U16C A37U | ≤ 0.5 |
| U3C U32G A40C G41A C61U G68A | ≤ 0.5 |
| U3G A21G C31G C33U A43U | ≤ 0.5 |
| U3G A37U G63A | ≤ 0.5 |
| U3G A43G G63U U64A | ≤ 0.5 |
| U3G C5G C11A A20G U35C | ≤ 0.5 |
| U3G C5U C30U A40U C49U | ≤ 0.5 |
| U3G C5U U26A G38A C62U A70U | ≤ 0.5 |
| U3G C11G U13A C30G | ≤ 0.5 |
| U3G C11U G51C | ≤ 0.5 |
| U3G C11U U19C A20U A42C | ≤ 0.5 |

| Variant | yeast fitness |
| --- | --- |
| U3G C11U U47A A69G | ≤ 0.5 |
| U3G C11U U64C | ≤ 0.5 |
| U3G C22A G50A U64C | ≤ 0.5 |
| U3G C24A C30U A69U | ≤ 0.5 |
| U3G C24U C31U A69U | 0.839 |
| U3G C29G C31G A36C | ≤ 0.5 |
| U3G C30A A40C C46U C60U C66U | ≤ 0.5 |
| U3G G18A G67A | ≤ 0.5 |
| U3G G25A G67A | ≤ 0.5 |
| U3G U8A C24A | ≤ 0.5 |
| U3G U8A G18C C30G A69C A70G | ≤ 0.5 |
| U3G U26A U28G A45C U54C | ≤ 0.5 |
| C4A A14U A20C U28G C31A | ≤ 0.5 |
| C4A A14U C30A G67C | ≤ 0.5 |
| C4A A15C C27G A65G | ≤ 0.5 |
| C4A A15G G17A U32C C62A A69U | ≤ 0.5 |
| C4A A20G C61G A65G | ≤ 0.5 |
| C4A A21C C22G | ≤ 0.5 |
| C4A A21C G39C C49G | 0.511 |
| C4A A43G A57U | ≤ 0.5 |
| C4A A45C C46U | ≤ 0.5 |
| C4A A57U G58C | ≤ 0.5 |
| C4A A70U | 0.879 |
